This is an account of results in US6551997B1, “Engineered polypeptides in personal care applications” (Biosil Research Institute INC, priority 2002, dated 2003).

No end group written: not given here.

This data set is described as follows: Comb properties evaluation of conditioner formulations on hair tresses (visual and tactile observations). Also noted: key: 1: Very poor; 2: Poor; 3: Satisfactory; 4: Good; 5: Excellent. To be noted: 1.0% polypeptide added to Base Formula, test scale 1-5.

Take “ALRSCLAKPSALRSCLAKCALRSCLAKCPSALRSSRLPAK (cysteine pairing not given here) [polypeptide 6]”: the “Product Spreadbility” value was 4, the “Residual Feel” value is on record as 4, the Shine is 3 and the “Smoothness of Product” value turned out to be 4. Moreover, the “Squeaky Feel” value came to 3 and the “Wet Combing” value amounted to 4.
As to “ALRSCLAKPSALRSCLPAKCALRSCLAKCPSALRSCLPAK (cysteine pairing not given here) [polypeptide 5]”, the “Product Spreadbility” value was found to be 4, the “Residual Feel” value is reported as 4, the Shine was found to be 4 and the “Smoothness of Product” value came out at 4. Besides, the “Squeaky Feel” value worked out at 3 and the “Wet Combing” value amounted to 5.
“ALRSCLAKPSALRSCLPAKS (cysteine pairing not given here) [polypeptide 2]”: the “Product Spreadbility” value turned out to be 4, the “Residual Feel” value is 4, the Shine is 2 and the “Smoothness of Product” value is listed as 4. The “Squeaky Feel” value was 2 and the “Wet Combing” value is 5.
“ALRSCLAKPSALRSCLPAKSALRSCLAKPSALRSCLKAKSALRSCLAKPSALRSCLKAKS (cysteine pairing not given here) [polypeptide 4]”: the “Product Spreadbility” value was 4, the “Residual Feel” value came out at 3, the Shine came out at 3 and the “Smoothness of Product” value is recorded as 4. In addition, the “Squeaky Feel” value amounted to 4 and the “Wet Combing” value stood at 4.
For the sequence “ALRSCLAKPSALRSCLPAKSALRSCLAKPSALRSCLPAKS (cysteine pairing not given here) [polypeptide 3]”, the “Product Spreadbility” value was 4, the “Residual Feel” value is 4, the Shine is 3 and the “Smoothness of Product” value worked out at 4. In addition, the “Squeaky Feel” value turned out to be 3 and the “Wet Combing” value is 4.
As for “ALRSCLAKPSALRSCLSAKSALRSCLAKPSALRSCLSAKS (cysteine pairing not given here) [polypeptide 7]”, the “Product Spreadbility” value was 4, the “Residual Feel” value was determined as 3, the Shine was 3 and the “Smoothness of Product” value was 3. In addition, the “Squeaky Feel” value was found to be 3 and the “Wet Combing” value stood at 4.
On to “ALRSCLPAKSALRSCLPAKS (cysteine pairing not given here) [polypeptide 1]”, for which the “Product Spreadbility” value is recorded as 5, the “Residual Feel” value is listed as 4, the Shine is 3 and the “Smoothness of Product” value came out at 5. Moreover, the “Squeaky Feel” value stood at 3 and the “Wet Combing” value was determined as 5.
“ALRSSLACKSALRSKLAAKSALRSSLAKASALRSSLAAKP [polypeptide 10, reference compound]”: the “Product Spreadbility” value came to 2, the “Residual Feel” value is 2, the Shine turned out to be 2 and the “Smoothness of Product” value was determined as 3. For the same sequence, the “Squeaky Feel” value came out at 2 and the “Wet Combing” value was 3.
With “ALRSSLAKKSALRSKLAAKS [polypeptide 9, reference compound]”, the “Product Spreadbility” value was 2, the “Residual Feel” value was 2, the Shine is listed as 1 and the “Smoothness of Product” value came to 3. Also, the “Squeaky Feel” value was 1 and the “Wet Combing” value was found to be 2.
Turning to “APRSCLAKPSALRSCLSACS (cysteine pairing not given here) [polypeptide 8]”, the “Product Spreadbility” value turned out to be 4, the “Residual Feel” value is on record as 4, the Shine is reported as 2 and the “Smoothness of Product” value was determined as 4. The “Squeaky Feel” value is 3 and the “Wet Combing” value is 5.
